Data taken from patent US20250340604A1, “BLOOD-BRAIN BARRIER TRANSLOCATING PEPTIDES AND RELATED MOLECULES AND METHODS OF USE THEREOF” (Enkefalos Biosciences, Inc., priority 2022, published 2025).
Results are given in words; binding and its absence hold for the method and conditions named. Some binding calls cover weakened binding; strength is not graded here.

Sequences of proteins named here, by UniProt entry; tags and fusion partners are left off. Residues count along the entry.
UniProt Q07954, residues 20-4419: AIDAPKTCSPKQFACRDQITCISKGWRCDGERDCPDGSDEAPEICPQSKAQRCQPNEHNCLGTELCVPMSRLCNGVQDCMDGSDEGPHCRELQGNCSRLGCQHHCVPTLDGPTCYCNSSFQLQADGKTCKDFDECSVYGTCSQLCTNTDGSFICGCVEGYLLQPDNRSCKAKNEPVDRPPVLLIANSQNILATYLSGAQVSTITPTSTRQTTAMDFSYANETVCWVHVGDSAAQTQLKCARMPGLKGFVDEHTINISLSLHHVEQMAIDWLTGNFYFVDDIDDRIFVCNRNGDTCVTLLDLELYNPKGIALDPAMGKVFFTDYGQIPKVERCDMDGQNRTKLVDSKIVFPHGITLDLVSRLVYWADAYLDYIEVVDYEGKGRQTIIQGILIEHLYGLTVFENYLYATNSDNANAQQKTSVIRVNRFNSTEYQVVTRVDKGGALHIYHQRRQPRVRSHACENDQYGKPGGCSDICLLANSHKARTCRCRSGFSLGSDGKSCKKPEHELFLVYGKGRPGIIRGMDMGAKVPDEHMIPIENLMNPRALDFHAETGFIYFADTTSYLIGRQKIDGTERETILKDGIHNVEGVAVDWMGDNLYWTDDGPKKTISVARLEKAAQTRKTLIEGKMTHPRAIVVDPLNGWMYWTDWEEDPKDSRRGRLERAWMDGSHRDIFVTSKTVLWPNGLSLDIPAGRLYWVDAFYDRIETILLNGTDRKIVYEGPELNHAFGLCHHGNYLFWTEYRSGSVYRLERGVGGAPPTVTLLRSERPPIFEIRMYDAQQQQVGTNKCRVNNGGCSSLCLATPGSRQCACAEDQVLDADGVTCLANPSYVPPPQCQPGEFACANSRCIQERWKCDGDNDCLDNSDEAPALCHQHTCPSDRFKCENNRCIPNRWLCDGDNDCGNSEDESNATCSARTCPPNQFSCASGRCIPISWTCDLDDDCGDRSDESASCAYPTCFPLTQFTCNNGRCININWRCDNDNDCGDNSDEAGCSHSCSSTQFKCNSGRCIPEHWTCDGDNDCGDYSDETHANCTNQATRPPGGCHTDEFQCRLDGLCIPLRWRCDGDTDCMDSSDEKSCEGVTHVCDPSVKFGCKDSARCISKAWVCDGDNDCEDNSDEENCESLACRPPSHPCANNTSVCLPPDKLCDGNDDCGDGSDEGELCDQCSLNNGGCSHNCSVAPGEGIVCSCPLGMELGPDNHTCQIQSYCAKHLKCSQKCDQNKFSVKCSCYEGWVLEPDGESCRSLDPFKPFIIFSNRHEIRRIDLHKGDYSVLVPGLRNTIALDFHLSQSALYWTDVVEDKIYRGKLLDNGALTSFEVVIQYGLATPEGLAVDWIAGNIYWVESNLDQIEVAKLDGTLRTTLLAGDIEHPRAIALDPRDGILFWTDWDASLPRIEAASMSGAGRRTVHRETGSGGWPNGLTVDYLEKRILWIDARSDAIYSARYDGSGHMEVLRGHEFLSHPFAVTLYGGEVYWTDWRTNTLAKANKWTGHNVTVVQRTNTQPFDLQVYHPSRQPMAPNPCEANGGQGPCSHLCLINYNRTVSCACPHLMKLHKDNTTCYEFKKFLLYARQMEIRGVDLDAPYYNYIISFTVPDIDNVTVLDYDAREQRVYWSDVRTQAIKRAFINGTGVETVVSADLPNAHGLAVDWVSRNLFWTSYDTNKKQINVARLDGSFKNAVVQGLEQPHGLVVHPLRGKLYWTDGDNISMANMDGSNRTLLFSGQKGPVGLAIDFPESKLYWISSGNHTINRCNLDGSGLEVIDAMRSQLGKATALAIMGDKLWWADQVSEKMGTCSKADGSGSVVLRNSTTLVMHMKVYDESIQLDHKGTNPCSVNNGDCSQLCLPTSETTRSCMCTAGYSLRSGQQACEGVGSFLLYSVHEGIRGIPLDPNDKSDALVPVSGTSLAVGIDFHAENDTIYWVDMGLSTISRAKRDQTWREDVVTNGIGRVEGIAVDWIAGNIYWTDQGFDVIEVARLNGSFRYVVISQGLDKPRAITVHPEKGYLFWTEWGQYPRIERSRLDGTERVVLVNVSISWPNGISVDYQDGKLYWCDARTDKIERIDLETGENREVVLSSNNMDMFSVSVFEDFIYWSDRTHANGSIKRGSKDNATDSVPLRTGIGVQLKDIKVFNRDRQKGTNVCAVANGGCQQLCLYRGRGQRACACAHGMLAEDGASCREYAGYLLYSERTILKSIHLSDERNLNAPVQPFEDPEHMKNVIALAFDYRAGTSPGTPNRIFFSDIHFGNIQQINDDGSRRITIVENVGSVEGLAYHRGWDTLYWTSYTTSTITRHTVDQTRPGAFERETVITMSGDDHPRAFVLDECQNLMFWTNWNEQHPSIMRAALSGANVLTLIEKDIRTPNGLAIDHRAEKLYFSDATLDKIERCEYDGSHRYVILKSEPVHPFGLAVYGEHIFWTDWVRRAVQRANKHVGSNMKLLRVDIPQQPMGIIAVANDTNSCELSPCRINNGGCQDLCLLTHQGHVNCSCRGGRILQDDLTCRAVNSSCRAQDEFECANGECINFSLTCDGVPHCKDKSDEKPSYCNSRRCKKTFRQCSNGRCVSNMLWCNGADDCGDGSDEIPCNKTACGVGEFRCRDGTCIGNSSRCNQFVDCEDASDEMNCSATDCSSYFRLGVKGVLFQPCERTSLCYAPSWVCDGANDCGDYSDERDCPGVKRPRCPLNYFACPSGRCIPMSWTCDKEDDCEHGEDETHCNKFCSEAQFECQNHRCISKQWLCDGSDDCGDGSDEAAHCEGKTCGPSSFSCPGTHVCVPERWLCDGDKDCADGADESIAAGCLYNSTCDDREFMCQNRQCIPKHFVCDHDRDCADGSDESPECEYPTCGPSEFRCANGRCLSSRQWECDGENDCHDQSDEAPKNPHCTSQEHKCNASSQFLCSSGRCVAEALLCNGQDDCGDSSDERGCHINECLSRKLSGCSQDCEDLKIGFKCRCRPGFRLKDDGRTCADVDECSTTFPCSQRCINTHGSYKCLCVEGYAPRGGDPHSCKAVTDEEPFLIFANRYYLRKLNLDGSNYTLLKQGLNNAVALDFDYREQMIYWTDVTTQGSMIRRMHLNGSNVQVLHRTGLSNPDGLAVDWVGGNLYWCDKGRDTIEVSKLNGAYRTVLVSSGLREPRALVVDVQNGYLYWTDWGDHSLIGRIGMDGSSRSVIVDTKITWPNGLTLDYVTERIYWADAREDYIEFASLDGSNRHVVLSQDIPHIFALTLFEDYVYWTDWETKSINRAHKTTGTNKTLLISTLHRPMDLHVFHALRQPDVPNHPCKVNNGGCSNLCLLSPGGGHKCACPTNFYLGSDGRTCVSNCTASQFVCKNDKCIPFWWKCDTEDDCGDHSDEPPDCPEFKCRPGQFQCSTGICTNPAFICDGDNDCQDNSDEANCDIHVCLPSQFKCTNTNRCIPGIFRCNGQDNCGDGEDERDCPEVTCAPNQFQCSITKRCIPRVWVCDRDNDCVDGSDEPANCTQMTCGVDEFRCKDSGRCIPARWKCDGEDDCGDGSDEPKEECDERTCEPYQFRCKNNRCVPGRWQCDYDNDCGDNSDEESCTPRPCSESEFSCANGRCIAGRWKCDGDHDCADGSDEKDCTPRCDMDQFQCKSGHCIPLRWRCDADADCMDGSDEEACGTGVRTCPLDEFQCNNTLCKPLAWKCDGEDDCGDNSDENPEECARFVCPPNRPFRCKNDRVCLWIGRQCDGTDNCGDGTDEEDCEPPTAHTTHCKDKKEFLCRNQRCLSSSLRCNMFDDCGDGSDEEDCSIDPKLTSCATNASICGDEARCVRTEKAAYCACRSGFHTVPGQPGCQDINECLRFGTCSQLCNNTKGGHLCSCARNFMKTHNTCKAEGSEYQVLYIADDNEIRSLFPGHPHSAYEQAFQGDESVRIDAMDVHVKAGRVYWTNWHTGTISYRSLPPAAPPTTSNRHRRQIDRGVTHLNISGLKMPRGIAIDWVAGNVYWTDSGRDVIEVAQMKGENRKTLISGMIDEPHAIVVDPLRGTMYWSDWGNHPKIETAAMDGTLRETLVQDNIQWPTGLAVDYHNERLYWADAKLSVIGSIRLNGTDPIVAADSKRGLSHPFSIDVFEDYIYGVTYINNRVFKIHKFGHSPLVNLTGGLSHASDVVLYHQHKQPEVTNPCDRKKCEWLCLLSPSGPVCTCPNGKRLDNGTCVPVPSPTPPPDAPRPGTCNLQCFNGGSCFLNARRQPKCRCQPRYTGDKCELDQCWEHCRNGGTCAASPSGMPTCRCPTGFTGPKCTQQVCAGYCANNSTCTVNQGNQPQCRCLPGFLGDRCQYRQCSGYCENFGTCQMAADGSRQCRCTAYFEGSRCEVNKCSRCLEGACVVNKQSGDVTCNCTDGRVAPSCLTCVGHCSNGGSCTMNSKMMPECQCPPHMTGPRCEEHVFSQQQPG

Target: human low-density lipoprotein receptor-related protein 1 (Hu LRP-1), recombinant extracellular domain (human) (UniProt Q07954)
Assay: phage selection and phage ELISA on coated receptor ECD

In the case of GGVCWLTLGIANKGIDVYDVKCRRDSDCPGACICRGNGYCGSGSD (designed binder) [CYC30], the binding is reported as “binds”.

GGVCNPLKLKYWREWTYGGGCRRDSDCPGACICRGNGYCGSGSD (designed binder) [CYC31] was tested, and the binding was “binds”.

GGVCYTQNRYKWLYAQTLNCRRDSDCPGACICRGNGYCGSGSD (designed binder) [CYC32] was tested, and the binding was “binds”.

For GGVCIEDRKHHRNLHQTVQCRRDSDCPGACICRGNGYCGSGSD (designed binder) [CYC33], the binding was “binds”.

In the case of GGVCWYETKTKLYVGVVKCRRDSDCPGACICRGNGYCGSGSD (designed binder) [CYC34], the binding is reported as “binds”.

For GGVCLALTKPYWQWAMCRRDSDCPGACICRGNGYCGSGSD (designed binder) [CYC35], the binding was “binds”.

GGVCWHHEWITWWFWHCRRDSDCPGACICRGNGYCGSGSD (designed binder) [CYC36] was tested, and the binding was “binds”.

GGVCDQSPYKLKHYGWCRRDSDCPGACICRGNGYCGSGSD (designed binder) [CYC37] was tested, and the binding was “binds”.

With GGVCPWYKMWFYETHRCRRDSDCPGACICRGNGYCGSGSD (designed binder) [CYC38] the binding was “binds”.

With GGVCTPWKSQPLFWFQCRRDSDCPGACICRGNGYCGSGSD (designed binder) [CYC39] the binding was “binds”.
